Construct, isoform or probe ends are uncertain for at least one entry. For some of these results: Negatives hold for the conditions tested.
Tests used:
Experiment in all cases: EMSA
GATA3 = conditions: EMSA: 0.6X buffer D (1X: 20 mM HEPES, 100 mM KCl, 1 mM DTT), 50 ng/ul poly-dI/dC, 1 ug/ul BSA, on ice 15 min, 6% native PAGE in 0.5X TBE; recombinant protein; protein details: FLAG (anti-FLAG purified)
GATA3 + OCA-B = conditions: no OCA-B supershift, GATA3 alone binds; EMSA: 0.6X buffer D (1X: 20 mM HEPES, 100 mM KCl, 1 mM DTT), 50 ng/ul poly-dI/dC, 1 ug/ul BSA, on ice 15 min, 6% native PAGE in 0.5X TBE; recombinant protein
[1] = tested on: Oct1 DNA binding domain (Oct1-DBD) + OCA-B; conditions: no OCA-B supershift, Oct1-DBD alone binds; EMSA: 0.6X buffer D (1X: 20 mM HEPES, 100 mM KCl, 1 mM DTT), 50 ng/ul poly-dI/dC, 1 ug/ul BSA, on ice 15 min, 6% native PAGE in 0.5X TBE; recombinant protein; protein details: His (pET28a),C-terminal twinstrep and FLAG

| Sequence | binding result (GATA3) | binding result (GATA3 + OCA-B) | binding result [1] |
| --- | --- | --- | --- |
| CACCATGCAAAGGATGTGCGCGGACTCCCTTCCATTTGCTGGCCTCTTATCTGATA (double strand) [RHS6-Cy5] | binds | no binding |  |
| TCGAGAAGCGCTGATTAGCATCTGTCATTA (double strand) [RHS5_12-Cy5] |  | no binding | no binding |
